Publication PMC11020294
These are yes or no findings as the source states them, for the method shown. Binding seen in cells or lysates may run through a third protein. Some entries that bind do so weakly or less than the wild type.

Protein sequences, listed by entry. Tags and fused reporters are not part of them.
UniProt Q9LYZ7: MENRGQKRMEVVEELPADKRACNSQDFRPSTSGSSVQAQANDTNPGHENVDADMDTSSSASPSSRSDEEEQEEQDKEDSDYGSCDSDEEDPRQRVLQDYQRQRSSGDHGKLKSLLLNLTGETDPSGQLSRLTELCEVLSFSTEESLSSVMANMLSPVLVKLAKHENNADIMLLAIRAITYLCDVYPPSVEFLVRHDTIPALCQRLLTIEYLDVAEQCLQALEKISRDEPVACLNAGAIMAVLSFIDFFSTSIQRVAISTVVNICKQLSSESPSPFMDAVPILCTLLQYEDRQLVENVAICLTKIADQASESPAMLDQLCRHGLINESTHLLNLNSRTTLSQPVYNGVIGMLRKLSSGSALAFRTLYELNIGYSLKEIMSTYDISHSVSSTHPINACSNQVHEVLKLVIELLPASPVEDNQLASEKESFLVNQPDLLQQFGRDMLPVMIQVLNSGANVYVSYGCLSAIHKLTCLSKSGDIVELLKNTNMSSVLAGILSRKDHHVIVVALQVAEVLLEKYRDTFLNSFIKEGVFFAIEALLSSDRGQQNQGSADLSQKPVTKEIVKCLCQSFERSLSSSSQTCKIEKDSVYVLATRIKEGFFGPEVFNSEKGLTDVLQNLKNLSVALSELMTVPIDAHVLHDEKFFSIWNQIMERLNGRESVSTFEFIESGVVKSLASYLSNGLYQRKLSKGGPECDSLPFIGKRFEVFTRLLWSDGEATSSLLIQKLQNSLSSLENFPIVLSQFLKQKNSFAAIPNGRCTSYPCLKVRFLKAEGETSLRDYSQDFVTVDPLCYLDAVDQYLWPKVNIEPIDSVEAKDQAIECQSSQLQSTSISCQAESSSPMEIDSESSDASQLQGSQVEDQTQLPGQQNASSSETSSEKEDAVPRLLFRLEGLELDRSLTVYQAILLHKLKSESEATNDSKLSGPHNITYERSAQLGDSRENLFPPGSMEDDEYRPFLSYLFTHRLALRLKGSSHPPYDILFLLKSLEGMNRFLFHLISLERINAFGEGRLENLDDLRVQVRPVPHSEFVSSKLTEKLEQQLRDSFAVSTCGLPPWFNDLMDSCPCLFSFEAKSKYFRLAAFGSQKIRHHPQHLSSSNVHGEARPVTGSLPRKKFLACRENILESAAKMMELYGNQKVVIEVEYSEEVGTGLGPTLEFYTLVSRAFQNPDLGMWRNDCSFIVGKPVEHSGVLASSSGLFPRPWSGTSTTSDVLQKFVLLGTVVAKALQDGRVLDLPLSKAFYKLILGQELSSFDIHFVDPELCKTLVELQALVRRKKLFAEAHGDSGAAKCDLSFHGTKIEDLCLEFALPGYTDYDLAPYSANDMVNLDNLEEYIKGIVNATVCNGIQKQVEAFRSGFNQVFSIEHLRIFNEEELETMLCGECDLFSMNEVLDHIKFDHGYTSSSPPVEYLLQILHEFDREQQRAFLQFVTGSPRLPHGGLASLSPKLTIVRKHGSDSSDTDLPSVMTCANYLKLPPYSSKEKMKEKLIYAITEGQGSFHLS

Target: cCFP-UPL4 (Arabidopsis thaliana) (UniProt Q9LYZ7)
Assay: split reporter; multicolor BiFC (mcBiFC) in Arabidopsis mesophyll protoplasts; nVenus and cCFP fusions transiently co-expressed, overnight; confocal microscopy; CBP20-RFP as nuclear marker

binding | Binder
binds | MAPKKK17-nVenus (protein, UniProt O80888 1-372) MEWTRGRILGRGSTATVYAAAGHNSDEILAVKSSEVHRSEFLQREAKILSSLSSPYVIGYRGSETKRESNGVVMYNLLMEYAPYGTLTDAAAKDGGRVDETRVVKYTRDILKGLEYIHSKGIVHCDVKGSNVVISEKGEAKIADFGCAKRVDPVFESPVMGTPAFMAPEVARGEKQGKESDIWAVGCTMIEMVTGSPPWTKADSREDPVSVLYRVGYSSETPELPCLLAEEAKDFLEKCLKREANERWTATQLLNHPFLTTKPDIEPVLVPGLISNSPTSVTDQTFWRSVEEEEEEETEEIQKDSRDLDRLSLWGCYSERIGRLKCVGGLDGTRCDMEGGDWIMVRARCEGTMISGSQKELIISENVLVGEL
binds | MAPKKK18-nVenus (protein, UniProt Q9ZVP5 1-339) MNWTRGKTLGRGSTATVSAATCHESGETLAVKSAEFHRSEFLQREAKILSSLNSPYVIGYRGCEITREPFHNNGEATTYSLLMEYAPYGTLTDVATKNGGFIDEARVVKYTRQILLGLEYIHNSKGIAHCDIKGSNVLVGENGEAKIADFGCAKWVEPEITEPVRGTPAFMAPEAARGERQGKESDIWAVGCTVIEMVTGSQPWIGADFTDPVSVLYRVGYLGELPELPCSLTEQAKDFLGKCLKKEATERWTASQLLNHPFLVNKEPELVTGLVTNSPTSVTDQMFWRSVEEEVSEDRSSWWECHEDERIGVLSWIGHVVVESTWDLDGEDWITVRRN
